Results from article PMC13483899.
These are yes or no findings as the source states them, for the method shown. In cells and extracts the contact can be indirect. A yes stands for co-enrichment or nearness to the bait. Other partners may have been found.

Amino acid sequences for entries named in this document (tags omitted). Residues count along the entry.
UniProt P56480, residues 47-529: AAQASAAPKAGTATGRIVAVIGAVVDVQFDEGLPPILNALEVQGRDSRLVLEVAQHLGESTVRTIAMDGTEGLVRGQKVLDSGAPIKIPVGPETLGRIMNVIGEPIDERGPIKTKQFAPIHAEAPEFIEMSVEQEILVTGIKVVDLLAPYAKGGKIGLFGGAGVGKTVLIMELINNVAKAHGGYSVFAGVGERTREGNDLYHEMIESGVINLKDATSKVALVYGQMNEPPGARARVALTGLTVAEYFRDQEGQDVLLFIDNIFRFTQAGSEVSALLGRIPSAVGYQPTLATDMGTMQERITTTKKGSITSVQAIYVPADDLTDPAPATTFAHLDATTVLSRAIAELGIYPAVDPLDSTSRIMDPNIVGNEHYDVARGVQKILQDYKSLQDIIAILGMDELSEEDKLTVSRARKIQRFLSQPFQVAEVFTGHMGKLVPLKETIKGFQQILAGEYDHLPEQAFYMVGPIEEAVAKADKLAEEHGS
UniProt Q7TQ48, residues 21-472: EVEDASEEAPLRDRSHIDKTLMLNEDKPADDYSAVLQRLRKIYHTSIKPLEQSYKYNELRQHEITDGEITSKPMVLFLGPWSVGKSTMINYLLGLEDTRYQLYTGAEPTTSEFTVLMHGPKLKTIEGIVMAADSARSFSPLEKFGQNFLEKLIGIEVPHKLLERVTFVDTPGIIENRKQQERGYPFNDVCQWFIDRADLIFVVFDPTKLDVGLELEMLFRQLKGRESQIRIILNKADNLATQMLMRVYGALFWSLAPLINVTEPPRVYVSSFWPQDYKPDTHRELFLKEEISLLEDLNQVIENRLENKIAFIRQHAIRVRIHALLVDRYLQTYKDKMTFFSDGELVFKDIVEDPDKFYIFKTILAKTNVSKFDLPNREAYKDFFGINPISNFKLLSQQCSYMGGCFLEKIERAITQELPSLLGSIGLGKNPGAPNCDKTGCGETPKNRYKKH
UniProt Q03265, residues 44-553: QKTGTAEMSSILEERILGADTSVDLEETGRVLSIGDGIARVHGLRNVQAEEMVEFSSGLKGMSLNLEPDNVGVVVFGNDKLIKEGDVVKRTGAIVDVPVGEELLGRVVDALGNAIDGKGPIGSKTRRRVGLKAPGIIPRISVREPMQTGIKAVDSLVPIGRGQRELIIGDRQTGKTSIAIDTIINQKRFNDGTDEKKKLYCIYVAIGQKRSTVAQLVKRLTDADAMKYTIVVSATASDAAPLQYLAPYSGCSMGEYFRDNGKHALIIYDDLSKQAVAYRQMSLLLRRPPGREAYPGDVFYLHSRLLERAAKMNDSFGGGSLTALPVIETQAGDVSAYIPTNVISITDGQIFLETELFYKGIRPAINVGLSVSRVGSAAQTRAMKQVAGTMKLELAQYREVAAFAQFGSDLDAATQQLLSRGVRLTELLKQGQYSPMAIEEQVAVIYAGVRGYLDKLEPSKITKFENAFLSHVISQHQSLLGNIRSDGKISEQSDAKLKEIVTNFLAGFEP

What follows are substances tested against T1, biotinylated human catestatin (CST; hCgA352-372) (human) (UniProt P10645) (assay: affinity purification with mass spectrometry; ligand affinity chromatography: biotinylated human CST on streptavidin-agarose, incubated overnight at 4 °C with the Triton X-100-solubilized membrane fraction of mouse heart (25 mM HEPES pH 7.4, 100 mM NaCl, 2 mM MgCl2, 1 mM KCl); washed with 0.1% Triton X-100, eluted at pH 5.5; TCA precipitation, 10% SDS-PAGE, Coomassie, in-gel trypsin digest, LC-MS/MS; only the target purified).
T1 sequence (peptide, C-terminal biotin, separated from the peptide by the four-amino-acid spacer SGSG): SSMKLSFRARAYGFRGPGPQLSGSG

binding | Substance
binds weakly | calsequestrin (mouse (endogenous in mouse heart))
binds | mouse F1-ATP synthase β-subunit (from UniProt P56480 47-529)
binds weakly | sarcalumenin (from UniProt Q7TQ48 21-472)
binds | mouse F1-ATP synthase α-subunit (from UniProt Q03265 44-553)
